No constants are given. Whether binding was seen depends on the method and setting. Some results given as binding are weak or reduced against the parent protein; the word gives no strength. Where a sequence is shown, tags or fusion partners need not be part of it.
What was measured:
Fc-HRS(2-60) (human) [1] = target: T1, Fc-HRS(2-60) (human) (UniProt P12081); assay: SPR co-injection: Fc-HRS(2-60) (2000 nM) captured on immobilized 12H6, then 200 nM NRP2 [panel A]
T1 sequence: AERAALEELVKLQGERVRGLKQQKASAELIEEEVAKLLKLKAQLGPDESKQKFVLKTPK

Fc-HRS(2-60) (human) [2] = target: T1, Fc-HRS(2-60) (human); assay: SPR: 20 nM NRP2 as analyte over immobilized Fc-HRS(2-60) [panel A]
Fc-HRS(2-60) (human) [3] = target: T1, Fc-HRS(2-60) (human); assay: SPR; Fc-HRS(2-60) immobilized, 50 nM analyte
Fc-HRS(2-60) (human) [4] = target: T1, Fc-HRS(2-60) (human); assay: SPR; Fc-HRS(2-60) immobilized; calcium-free running buffer, 5 mM CaCl2, MgCl2, ZnCl2 or EDTA added to the analyte
Fc-HRS(2-60) (human) [5] = target: T1, Fc-HRS(2-60) (human); assay: SPR: 50 nM human NRP2 as analyte over immobilized Fc-HRS(2-60) [panel A]
Fc-HRS(2-60) (human) [6] = target: T1, Fc-HRS(2-60) (human); assay: SPR co-injection; antibody immobilized, 2000 nM Fc-HRS(2-60) then 200 nM NRP2
Fc-HRS(2-60) (human) [7] = target: T1, Fc-HRS(2-60) (human); assay: SPR co-injection: Fc-HRS(2-60) (2000 nM) captured on immobilized 13E9, then 200 nM NRP2 [panel D]
Fc-HRS(2-60) (human) [8] = target: T1, Fc-HRS(2-60) (human); assay: SPR (ProteOn XPR36): 50 nM NRP2 as analyte over immobilized Fc-HRS(2-60)
Fc-HRS(2-60) (human) [9] = target: T1, Fc-HRS(2-60) (human); assay: SPR co-injection: Fc-HRS(2-60) (2000 nM) captured on immobilized 4D4, then 200 nM NRP2 [panel C]
Fc-HRS(2-60) (human) [10] = target: T1, Fc-HRS(2-60) (human); assay: SPR; Fc-HRS(2-60) immobilized, 50 nM NRP2 analyte
Fc-HRS(2-60) (human) [11] = target: T1, Fc-HRS(2-60) (human); assay: SPR: 20 nM NRP2 over immobilized Fc-HRS(2-60); running buffer 50 mM HEPES, 300 mM NaCl, 0.005% Tween20, pH 7.4; analyte supplemented with 5 mM of the named additive [panel B]
Fc-HRS(2-60) (human) [12] = target: T1, Fc-HRS(2-60) (human); assay: SPR; Fc-HRS(2-60) immobilized
Fc-HRS(2-60) (human) [13] = target: T1, Fc-HRS(2-60) (human); assay: SPR: 4D4 immobilized; analyte a pre-incubated mixture of 100 nM Fc-HRS(2-60) and 200 nM NRP2 [panel B]
Fc-HRS(2-60) (human) [14] = target: T1, Fc-HRS(2-60) (human); assay: SPR; Fc-HRS(2-60) immobilized, 20 nM NRP2 analyte
Fc-HRS(2-60) (human) [15] = target: T1, Fc-HRS(2-60) (human); assay: SPR; antibody immobilized
Fc-HRS(2-60) (human) [16] = target: T1, Fc-HRS(2-60) (human); assay: SPR: 20 nM NRP2 over immobilized Fc-HRS(2-60); running buffer 50 mM HEPES, 300 mM NaCl, 0.005% Tween20, pH 7.4; analyte supplemented with 5 mM of the named additive [panel A]

Measured: binding

B1: NRP2-Fc (R&D Systems #2215-N2) (Fc fusion, human, UniProt O60462 23-864, looked up, not shown: a dimerising Fc or GST)
chain: QPDPPCGGRLNSKDAGYITSPGYPQDYPSHQNCEWIVYAPEPNQKIVLNFNPHFEIEKHDCKYDFIEIRDGDSESADLLGKHCGNIAPPTIISSGSMLYIKFTSDYARQGAGFSLRYEIFKTGSEDCSKNFTSPNGTIESPGFPEKYPHNLDCTFTILAKPKMEIILQFLIFDLEHDPLQVGEGDCKYDWLDIWDGIPHVGPLIGKYCGTKTPSELRSSTGILSLTFHTDMAVAKDGFSARYYLVHQEPLENFQCNVPLGMESGRIANEQISASSTYSDGRWTPQQSRLHGDDNGWTPNLDSNKEYLQVDLRFLTMLTAIATQGAISRETQNGYYVKSYKLEVSTNGEDWMVYRHGKNHKVFQANNDATEVVLNKLHAPLLTRFVRIRPQTWHSGIALRLELFGCRVTDAPCSNMLGMLSGLIADSQISASSTQEYLWSPSAARLVSSRSGWFPRIPQAQPGEEWLQVDLGTPKTVKGVIIQGARGGDSITAVEARAFVRKFKVSYSLNGKDWEYIQDPRTQQPKLFEGNMHYDTPDIRRFDPIPAQYVRVYPERWSPAGIGMRLEVLGCDWTDSKPTVETLGPTVKSEETTTPYPTEEEATECGENCSFEDDKDLQLPSGFNCNFDFLEEPCGWMYDHAKWLRTTWASSSSPNDRTFPDDRNFLRLQSDSQREGQYARLISPPVHLPRSPVCMEFQYQATGGRGVALQVVREASQESKLLWVIREDQGGEWKHGRIILPSYDMEYQIVFEGVIGKGRSGEIAIDDIRISTDVPLENCMEPISAFAGENFKVDIPEIHEREGYEDEIDDEYEVDWSNSSSATSGSGAPSTDKEKSWLYTLDP
binds: Fc-HRS(2-60) (human) [1] | Fc-HRS(2-60) (human) [2] | Fc-HRS(2-60) (human) [3] | Fc-HRS(2-60) (human) [4] | Fc-HRS(2-60) (human) [5] | Fc-HRS(2-60) (human) [6] | Fc-HRS(2-60) (human) [7] | Fc-HRS(2-60) (human) [8] | Fc-HRS(2-60) (human) [9] | Fc-HRS(2-60) (human) [10] | Fc-HRS(2-60) (human) [11] | Fc-HRS(2-60) (human) [12] | Fc-HRS(2-60) (human) [13] | Fc-HRS(2-60) (human) [14] | Fc-HRS(2-60) (human) [15] | Fc-HRS(2-60) (human) [16]
